We go through 8 molecules from article PMC7950113.

Protein sequences, listed by entry. Tags and fused reporters are not part of them. Lines headed by an entry give the natural chain unless they say otherwise; changes in a name come on top. Chains listed by the source or under a name are the forms on record and can include a tag or linker. Residues count along the entry.
FLAG-tagged thyroglobulin, WT (P01266, residues 20-2768): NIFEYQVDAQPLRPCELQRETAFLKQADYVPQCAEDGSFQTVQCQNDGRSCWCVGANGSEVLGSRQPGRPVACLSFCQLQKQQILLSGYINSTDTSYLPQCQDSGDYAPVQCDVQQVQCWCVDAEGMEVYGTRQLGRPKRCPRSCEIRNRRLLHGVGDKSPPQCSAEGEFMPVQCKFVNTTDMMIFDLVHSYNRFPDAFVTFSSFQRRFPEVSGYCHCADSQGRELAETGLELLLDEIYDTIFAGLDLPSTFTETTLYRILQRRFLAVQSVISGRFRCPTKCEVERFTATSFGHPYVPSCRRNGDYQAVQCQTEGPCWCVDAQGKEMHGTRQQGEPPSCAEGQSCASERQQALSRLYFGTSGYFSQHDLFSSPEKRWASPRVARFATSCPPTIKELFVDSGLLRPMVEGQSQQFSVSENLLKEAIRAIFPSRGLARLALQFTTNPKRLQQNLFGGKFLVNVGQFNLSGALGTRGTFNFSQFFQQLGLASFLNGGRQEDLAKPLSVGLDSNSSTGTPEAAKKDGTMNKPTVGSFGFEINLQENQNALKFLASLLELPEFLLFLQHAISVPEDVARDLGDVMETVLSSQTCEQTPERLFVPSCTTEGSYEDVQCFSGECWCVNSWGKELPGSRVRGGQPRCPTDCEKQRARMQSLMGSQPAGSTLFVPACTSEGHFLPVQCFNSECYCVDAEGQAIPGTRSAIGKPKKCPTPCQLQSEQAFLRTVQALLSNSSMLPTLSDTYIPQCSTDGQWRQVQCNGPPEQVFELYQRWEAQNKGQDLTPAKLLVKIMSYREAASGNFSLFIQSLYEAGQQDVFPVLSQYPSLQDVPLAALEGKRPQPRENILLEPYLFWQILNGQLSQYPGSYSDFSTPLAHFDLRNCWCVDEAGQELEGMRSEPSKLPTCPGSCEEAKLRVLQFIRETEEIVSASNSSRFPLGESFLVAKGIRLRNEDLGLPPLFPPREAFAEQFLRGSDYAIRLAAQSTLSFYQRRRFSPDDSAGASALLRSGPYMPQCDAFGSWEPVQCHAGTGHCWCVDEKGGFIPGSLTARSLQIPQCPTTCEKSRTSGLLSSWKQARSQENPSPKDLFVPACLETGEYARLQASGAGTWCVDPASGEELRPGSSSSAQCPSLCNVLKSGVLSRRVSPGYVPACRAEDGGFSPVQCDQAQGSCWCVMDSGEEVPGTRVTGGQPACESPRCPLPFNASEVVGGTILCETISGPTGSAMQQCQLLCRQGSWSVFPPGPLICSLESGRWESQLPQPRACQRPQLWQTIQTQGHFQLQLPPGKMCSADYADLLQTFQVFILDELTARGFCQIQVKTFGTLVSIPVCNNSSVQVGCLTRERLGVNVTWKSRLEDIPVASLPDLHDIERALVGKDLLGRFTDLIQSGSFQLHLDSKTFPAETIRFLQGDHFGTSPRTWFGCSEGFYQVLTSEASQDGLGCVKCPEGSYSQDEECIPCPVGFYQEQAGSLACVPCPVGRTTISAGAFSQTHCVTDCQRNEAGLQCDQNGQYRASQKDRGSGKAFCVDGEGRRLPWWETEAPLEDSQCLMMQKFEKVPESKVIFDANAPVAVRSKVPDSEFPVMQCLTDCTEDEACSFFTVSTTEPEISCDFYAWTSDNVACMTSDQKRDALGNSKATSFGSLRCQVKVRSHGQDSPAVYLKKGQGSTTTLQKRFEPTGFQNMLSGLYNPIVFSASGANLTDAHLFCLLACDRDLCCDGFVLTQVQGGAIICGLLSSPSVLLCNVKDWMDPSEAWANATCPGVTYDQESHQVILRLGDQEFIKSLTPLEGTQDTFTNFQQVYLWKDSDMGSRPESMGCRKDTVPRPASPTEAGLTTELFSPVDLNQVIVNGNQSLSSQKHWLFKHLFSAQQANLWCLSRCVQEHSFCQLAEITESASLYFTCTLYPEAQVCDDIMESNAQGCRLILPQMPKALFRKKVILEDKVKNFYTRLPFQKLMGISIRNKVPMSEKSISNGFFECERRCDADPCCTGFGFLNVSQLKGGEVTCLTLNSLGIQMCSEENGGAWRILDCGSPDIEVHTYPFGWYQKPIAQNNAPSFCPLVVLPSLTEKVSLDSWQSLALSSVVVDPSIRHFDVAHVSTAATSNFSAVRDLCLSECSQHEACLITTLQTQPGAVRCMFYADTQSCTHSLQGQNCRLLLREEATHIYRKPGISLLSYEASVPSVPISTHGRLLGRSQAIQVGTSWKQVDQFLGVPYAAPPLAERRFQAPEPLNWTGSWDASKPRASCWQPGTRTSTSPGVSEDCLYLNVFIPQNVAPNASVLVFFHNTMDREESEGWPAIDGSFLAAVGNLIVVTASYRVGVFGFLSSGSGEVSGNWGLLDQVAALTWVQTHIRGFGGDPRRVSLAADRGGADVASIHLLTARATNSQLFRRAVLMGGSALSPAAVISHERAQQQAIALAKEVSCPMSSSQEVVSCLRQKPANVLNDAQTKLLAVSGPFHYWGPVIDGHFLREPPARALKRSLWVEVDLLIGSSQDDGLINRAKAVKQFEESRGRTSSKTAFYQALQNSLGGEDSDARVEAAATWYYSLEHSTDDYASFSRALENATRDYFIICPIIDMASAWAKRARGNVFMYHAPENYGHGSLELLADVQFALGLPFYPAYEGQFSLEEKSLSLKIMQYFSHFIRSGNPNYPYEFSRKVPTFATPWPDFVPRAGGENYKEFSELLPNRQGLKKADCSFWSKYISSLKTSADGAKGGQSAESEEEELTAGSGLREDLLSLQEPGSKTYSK
FLAG-tagged thyroglobulin C1264R (P01266, form named): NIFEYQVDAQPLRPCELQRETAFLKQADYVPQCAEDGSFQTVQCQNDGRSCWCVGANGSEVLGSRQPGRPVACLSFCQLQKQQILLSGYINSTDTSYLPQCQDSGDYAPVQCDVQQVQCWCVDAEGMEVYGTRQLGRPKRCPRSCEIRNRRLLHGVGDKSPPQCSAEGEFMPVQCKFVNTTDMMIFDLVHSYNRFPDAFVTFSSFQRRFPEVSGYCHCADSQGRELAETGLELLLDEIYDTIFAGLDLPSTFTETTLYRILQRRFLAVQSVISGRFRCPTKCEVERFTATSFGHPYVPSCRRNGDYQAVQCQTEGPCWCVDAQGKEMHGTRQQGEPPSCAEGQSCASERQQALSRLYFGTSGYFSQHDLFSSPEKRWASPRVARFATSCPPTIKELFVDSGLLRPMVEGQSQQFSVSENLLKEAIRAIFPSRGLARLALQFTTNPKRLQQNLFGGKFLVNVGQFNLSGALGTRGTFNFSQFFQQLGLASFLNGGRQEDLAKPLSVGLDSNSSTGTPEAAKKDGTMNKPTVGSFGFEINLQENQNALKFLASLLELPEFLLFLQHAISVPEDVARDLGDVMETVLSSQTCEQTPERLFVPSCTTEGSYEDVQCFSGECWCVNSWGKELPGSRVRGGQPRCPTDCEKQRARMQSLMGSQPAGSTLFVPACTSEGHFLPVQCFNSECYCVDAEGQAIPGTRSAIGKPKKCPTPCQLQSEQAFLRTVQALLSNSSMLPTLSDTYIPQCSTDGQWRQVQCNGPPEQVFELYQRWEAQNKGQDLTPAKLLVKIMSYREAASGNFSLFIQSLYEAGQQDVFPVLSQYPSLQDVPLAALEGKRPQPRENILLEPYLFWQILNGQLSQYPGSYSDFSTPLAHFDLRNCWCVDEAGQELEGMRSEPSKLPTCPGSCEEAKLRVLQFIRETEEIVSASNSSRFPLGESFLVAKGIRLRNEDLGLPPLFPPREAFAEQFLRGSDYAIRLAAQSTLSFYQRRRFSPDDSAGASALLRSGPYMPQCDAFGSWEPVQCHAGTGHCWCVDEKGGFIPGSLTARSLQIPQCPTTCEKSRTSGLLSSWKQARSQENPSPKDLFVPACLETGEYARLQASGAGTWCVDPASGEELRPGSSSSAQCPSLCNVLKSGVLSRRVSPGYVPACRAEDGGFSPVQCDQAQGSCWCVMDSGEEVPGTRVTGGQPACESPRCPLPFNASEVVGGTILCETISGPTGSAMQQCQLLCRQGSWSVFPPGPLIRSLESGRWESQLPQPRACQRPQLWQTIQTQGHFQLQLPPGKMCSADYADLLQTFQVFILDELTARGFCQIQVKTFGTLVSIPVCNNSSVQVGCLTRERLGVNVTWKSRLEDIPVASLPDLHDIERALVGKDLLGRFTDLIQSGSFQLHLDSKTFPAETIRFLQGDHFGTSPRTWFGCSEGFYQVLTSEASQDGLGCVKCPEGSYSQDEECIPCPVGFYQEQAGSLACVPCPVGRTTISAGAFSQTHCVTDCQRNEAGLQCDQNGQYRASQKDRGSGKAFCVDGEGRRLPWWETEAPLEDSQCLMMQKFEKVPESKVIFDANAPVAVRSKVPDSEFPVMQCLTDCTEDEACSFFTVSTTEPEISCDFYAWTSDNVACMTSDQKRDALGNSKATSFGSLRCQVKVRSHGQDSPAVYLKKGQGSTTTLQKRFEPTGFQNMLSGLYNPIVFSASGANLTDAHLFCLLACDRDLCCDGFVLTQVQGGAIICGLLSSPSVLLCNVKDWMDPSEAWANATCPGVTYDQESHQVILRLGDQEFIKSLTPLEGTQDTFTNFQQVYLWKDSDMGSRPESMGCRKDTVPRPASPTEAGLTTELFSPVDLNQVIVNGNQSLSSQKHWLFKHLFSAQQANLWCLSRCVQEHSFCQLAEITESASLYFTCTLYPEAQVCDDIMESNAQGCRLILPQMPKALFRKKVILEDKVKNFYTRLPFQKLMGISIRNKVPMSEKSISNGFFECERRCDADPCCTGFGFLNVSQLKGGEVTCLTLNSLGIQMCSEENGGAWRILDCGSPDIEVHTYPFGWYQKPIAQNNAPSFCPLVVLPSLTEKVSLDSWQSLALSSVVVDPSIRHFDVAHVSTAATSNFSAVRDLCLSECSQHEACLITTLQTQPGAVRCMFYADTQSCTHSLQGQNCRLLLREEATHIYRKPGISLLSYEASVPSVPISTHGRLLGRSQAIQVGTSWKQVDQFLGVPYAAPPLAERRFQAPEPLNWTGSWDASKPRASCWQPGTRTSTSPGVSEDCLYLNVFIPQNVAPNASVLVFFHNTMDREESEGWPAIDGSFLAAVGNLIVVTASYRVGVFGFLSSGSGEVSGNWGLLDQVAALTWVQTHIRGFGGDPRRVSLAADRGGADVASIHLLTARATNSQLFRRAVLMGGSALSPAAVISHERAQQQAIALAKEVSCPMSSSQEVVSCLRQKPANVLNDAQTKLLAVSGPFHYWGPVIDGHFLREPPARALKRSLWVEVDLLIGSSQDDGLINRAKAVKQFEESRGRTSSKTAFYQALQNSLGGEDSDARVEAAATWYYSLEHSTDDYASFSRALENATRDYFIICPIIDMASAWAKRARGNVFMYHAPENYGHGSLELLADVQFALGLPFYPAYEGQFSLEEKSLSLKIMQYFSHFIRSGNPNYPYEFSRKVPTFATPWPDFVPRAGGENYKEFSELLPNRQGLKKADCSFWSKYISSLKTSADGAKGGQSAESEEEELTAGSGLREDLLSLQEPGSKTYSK

These are yes or no findings as the source states them, for the method shown. Binding seen in cells or lysates may run through a third protein. These calls come from enrichment with a bait or labelling near it, and not all partners need be listed.

For assay [1], the target named is FLAG-tagged thyroglobulin, WT (human) (UniProt P01266). In words: affinity purification with mass spectrometry; FLAG-Tg variants transiently expressed in HEK293 cells; cells cross-linked with 0.5 mM DSP, RIPA lysate, M2 anti-flag agarose or G1 Anti-DYKDDDDK resin overnight at 4 °C, four RIPA washes; TMT sixplex LC-MS/MS against mock AP (untagged Tg, EGFP or tdTomato).

Assay [2] has as its target FLAG-tagged thyroglobulin C1264R (human) (UniProt P01266). Described as above.

B1: protein disulfide isomerase family A member 10 (protein, UniProt Q9BS26 30-406)
chain: EITSLDTENIDEILNNADVALVNFYADWCRFSQMLHPIFEEASDVIKEEFPNENQVVFARVDCDQHSDIAQRYRISKYPTLKLFRNGMMMKREYRGQRSVKALADYIRQQKSDPIQEIRDLAEITTLDRSKRNIIGYFEQKDSDNYRVFERVANILHDDCAFLSAFGDVSKPERYSGDNIIYKPPGHSAPDMVYLGAMTNFDVTYNWIQDKCVPLVREITFENGEELTEEGLPFLILFHMKEDTESLEIFQNEVARQLISEKGTINFLHADCDKFRHPLLHIQKTPADCPVIAIDSFRHMYVFGDFKDVLIPGKLKQFVFDLHSGKLHREFHHGPDPTDTAPGEQAQDVASSPPESSFQKLAPSEYRYTLLRDRDEL
As for B1, in assay [1], the binding result is given as “binds”.

B2: ER membrane complex subunit EMC1 (protein, UniProt Q8N766 23-993)
chain: YEDQVGKFDWRQQYVGKVKFASLEFSPGSKKLVVATEKNVIAALNSRTGEILWRHVDKGTAEGAVDAMLLHGQDVITVSNGGRIMRSWETNIGGLNWEITLDSGSFQALGLVGLQESVRYIAVLKKTTLALHHLSSGHLKWVEHLPESDSIHYQMVYSYGSGVVWALGVVPFSHVNIVKFNVEDGEIVQQVRVSTPWLQHLSGACGVVDEAVLVCPDPSSRSLQTLALETEWELRQIPLQSLDLEFGSGFQPRVLPTQPNPVDASRAQFFLHLSPSHYALLQYHYGTLSLLKNFPQTALVSFATTGEKTVAAVMACRNEVQKSSSSEDGSMGSFSEKSSSKDSLACFNQTYTINLYLVETGRRLLDTTITFSLEQSGTRPERLYIQVFLKKDDSVGYRALVQTEDHLLLFLQQLAGKVVLWSREESLAEVVCLEMVDLPLTGAQAELEGEFGKKADGLLGMFLKRLSSQLILLQAWTSHLWKMFYDARKPRSQIKNEINIDTLARDEFNLQKMMVMVTASGKLFGIESSSGTILWKQYLPNVKPDSSFKLMVQRTTAHFPHPPQCTLLVKDKESGMSSLYVFNPIFGKWSQVAPPVLKRPILQSLLLPVMDQDYAKVLLLIDDEYKVTAFPATRNVLRQLHELAPSIFFYLVDAEQGRLCGYRLRKDLTTELSWELTIPPEVQRIVKVKGKRSSEHVHSQGRVMGDRSVLYKSLNPNLLAVVTESTDAHHERTFIGIFLIDGVTGRIIHSSVQKKAKGPVHIVHSENWVVYQYWNTKARRNEFTVLELYEGTEQYNATAFSSLDRPQLPQVLQQSYIFPSSISAMEATITERGITSRHLLIGLPSGAILSLPKALLDPRRPEIPTEQSREENLIPYSPDVQIHAERFINYNQTVSRMRGIYTAPSGLESTCLVVAYGLDIYQTRVYPSKQFDVLKDDYDYVLISSVLFGLVFATMITKRLAQVKLLNRAWR
For the molecule B2, the binding result in assay [2] is listed as “binds”.

B3: oligosaccharyl transferase complex catalytic subunit A (protein, UniProt P46977 1-705)
chain: MTKFGFLRLSYEKQDTLLKLLILSMAAVLSFSTRLFAVLRFESVIHEFDPYFNYRTTRFLAEEGFYKFHNWFDDRAWYPLGRIIGGTIYPGLMITSAAIYHVLHFFHITIDIRNVCVFLAPLFSSFTTIVTYHLTKELKDAGAGLLAAAMIAVVPGYISRSVAGSYDNEGIAIFCMLLTYYMWIKAVKTGSICWAAKCALAYFYMVSSWGGYVFLINLIPLHVLVLMLTGRFSHRIYVAYCTVYCLGTILSMQISFVGFQPVLSSEHMAAFGVFGLCQIHAFVDYLRSKLNPQQFEVLFRSVISLVGFVLLTVGALLMLTGKISPWTGRFYSLLDPSYAKNNIPIIASVSEHQPTTWSSYYFDLQLLVFMFPVGLYYCFSNLSDARIFIIMYGVTSMYFSAVMVRLMLVLAPVMCILSGIGVSQVLSTYMKNLDISRPDKKSKKQQDSTYPIKNEVASGMILVMAFFLITYTFHSTWVTSEAYSSPSIVLSARGGDGSRIIFDDFREAYYWLRHNTPEDAKVMSWWDYGYQITAMANRTILVDNNTWNNTHISRVGQAMASTEEKAYEIMRELDVSYVLVIFGGLTGYSSDDINKFLWMVRIGGSTDTGKHIKENDYYTPTGEFRVDREGSPVLLNCLMYKMCYYRFGQVYTEAKRPPGFDRVRNAEIGNKDFELDVLEEAYTTEHWLVRIYKVKDLDNRGLSRT
Turning to B3, the binding entry in assay [1] is on record as “binds”.

B4: HYOU1 (protein, UniProt Q9Y4L1 33-999)
chain: LAVMSVDLGSESMKVAIVKPGVPMEIVLNKESRRKTPVIVTLKENERFFGDSAASMAIKNPKATLRYFQHLLGKQADNPHVALYQARFPEHELTFDPQRQTVHFQISSQLQFSPEEVLGMVLNYSRSLAEDFAEQPIKDAVITVPVFFNQAERRAVLQAARMAGLKVLQLINDNTATALSYGVFRRKDINTTAQNIMFYDMGSGSTVCTIVTYQMVKTKEAGMQPQLQIRGVGFDRTLGGLEMELRLRERLAGLFNEQRKGQRAKDVRENPRAMAKLLREANRLKTVLSANADHMAQIEGLMDDVDFKAKVTRVEFEELCADLFERVPGPVQQALQSAEMSLDEIEQVILVGGATRVPRVQEVLLKAVGKEELGKNINADEAAAMGAVYQAAALSKAFKVKPFVVRDAVVYPILVEFTREVEEEPGIHSLKHNKRVLFSRMGPYPQRKVITFNRYSHDFNFHINYGDLGFLGPEDLRVFGSQNLTTVKLKGVGDSFKKYPDYESKGIKAHFNLDESGVLSLDRVESVFETLVEDSAEEESTLTKLGNTISSLFGGGTTPDAKENGTDTVQEEEESPAEGSKDEPGEQVELKEEAEAPVEDGSQPPPPEPKGDATPEGEKATEKENGDKSEAQKPSEKAEAGPEGVAPAPEGEKKQKPARKRRMVEEIGVELVVLDLPDLPEDKLAQSVQKLQDLTLRDLEKQEREKAANSLEAFIFETQDKLYQPEYQEVSTEEQREEISGKLSAASTWLEDEGVGATTVMLKEKLAELRKLCQGLFFRVEERKKWPERLSALDNLLNHSSMFLKGARLIPEMDQIFTEVEMTTLEKVINETWAWKNATLAEQAKLPATEKPVLLSKDIEAKMMALDREVQYLLNKAKFTKPRPRPKDKNGTRAEPPLNASASDQGEKVIPPAGQTEDAEPISEPEKVETGSEPGDTEPLELGGPGAEPEQKEQSTGQKRPLKNDEL
Turning to B4, the binding result in assay [1] is “binds”.

B5: ER lipid raft-associated protein ERLIN1 (protein, UniProt O75477 1-348)
chain: MNMTQARVLVAAVVGLVAVLLYASIHKIEEGHLAVYYRGGALLTSPSGPGYHIMLPFITTFRSVQTTLQTDEVKNVPCGTSGGVMIYIDRIEVVNMLAPYAVFDIVRNYTADYDKTLIFNKIHHELNQFCSAHTLQEVYIELFDQIDENLKQALQKDLNLMAPGLTIQAVRVTKPKIPEAIRRNFELMEAEKTKLLIAAQKQKVVEKEAETERKKAVIEAEKIAQVAKIRFQQKVMEKETEKRISEIEDAAFLAREKAKADAEYYAAHKYATSNKHKLTPEYLELKKYQAIASNSKIYFGSNIPNMFVDSSCALKYSDIRTGRESSLPSKEALEPSGENVIQNKESTG
As for B5, in assay [2], the binding entry was “binds”.

B6: DnaJ heat shock protein family member C3 (protein, UniProt Q13217 32-504)
chain: GVNADVEKHLELGKKLLAAGQLADALSQFHAAVDGDPDNYIAYYRRATVFLAMGKSKAALPDLTKVIQLKMDFTAARLQRGHLLLKQGKLDEAEDDFKKVLKSNPSENEEKEAQSQLIKSDEMQRLRSQALNAFGSGDYTAAIAFLDKILEVCVWDAELRELRAECFIKEGEPRKAISDLKAASKLKNDNTEAFYKISTLYYQLGDHELSLSEVRECLKLDQDHKRCFAHYKQVKKLNKLIESAEELIRDGRYTDATSKYESVMKTEPSIAEYTVRSKERICHCFSKDEKPVEAIRVCSEVLQMEPDNVNALKDRAEAYLIEEMYDEAIQDYETAQEHNENDQQIREGLEKAQRLLKQSQKRDYYKILGVKRNAKKQEIIKAYRKLALQWHPDNFQNEEEKKKAEKKFIDIAAAKEVLSDPEMRKKFDDGEDPLDAESQQGGGGNPFHRSWNSWQGFNPFSSGGPFRFKFHFN
In the case of B6, the binding entry in assay [1] is reported as “binds”.

B7: ER-localized peroxidase PXDN (protein, UniProt Q92626 27-1479)
chain: VVAQKPGAGCPSRCLCFRTTVRCMHLLLEAVPAVAPQTSILDLRFNRIREIQPGAFRRLRNLNTLLLNNNQIKRIPSGAFEDLENLKYLYLYKNEIQSIDRQAFKGLASLEQLYLHFNQIETLDPDSFQHLPKLERLFLHNNRITHLVPGTFNHLESMKRLRLDSNTLHCDCEILWLADLLKTYAESGNAQAAAICEYPRRIQGRSVATITPEELNCERPRITSEPQDADVTSGNTVYFTCRAEGNPKPEIIWLRNNNELSMKTDSRLNLLDDGTLMIQNTQETDQGIYQCMAKNVAGEVKTQEVTLRYFGSPARPTFVIQPQNTEVLVGESVTLECSATGHPPPRISWTRGDRTPLPVDPRVNITPSGGLYIQNVVQGDSGEYACSATNNIDSVHATAFIIVQALPQFTVTPQDRVVIEGQTVDFQCEAKGNPPPVIAWTKGGSQLSVDRRHLVLSSGTLRISGVALHDQGQYECQAVNIIGSQKVVAHLTVQPRVTPVFASIPSDTTVEVGANVQLPCSSQGEPEPAITWNKDGVQVTESGKFHISPEGFLTINDVGPADAGRYECVARNTIGSASVSMVLSVNVPDVSRNGDPFVATSIVEAIATVDRAINSTRTHLFDSRPRSPNDLLALFRYPRDPYTVEQARAGEIFERTLQLIQEHVQHGLMVDLNGTSYHYNDLVSPQYLNLIANLSGCTAHRRVNNCSDMCFHQKYRTHDGTCNNLQHPMWGASLTAFERLLKSVYENGFNTPRGINPHRLYNGHALPMPRLVSTTLIGTETVTPDEQFTHMLMQWGQFLDHDLDSTVVALSQARFSDGQHCSNVCSNDPPCFSVMIPPNDSRARSGARCMFFVRSSPVCGSGMTSLLMNSVYPREQINQLTSYIDASNVYGSTEHEARSIRDLASHRGLLRQGIVQRSGKPLLPFATGPPTECMRDENESPIPCFLAGDHRANEQLGLTSMHTLWFREHNRIATELLKLNPHWDGDTIYYETRKIVGAEIQHITYQHWLPKILGEVGMRTLGEYHGYDPGINAGIFNAFATAAFRFGHTLVNPLLYRLDENFQPIAQDHLPLHKAFFSPFRIVNEGGIDPLLRGLFGVAGKMRVPSQLLNTELTERLFSMAHTVALDLAAINIQRGRDHGIPPYHDYRVYCNLSAAHTFEDLKNEIKNPEIREKLKRLYGSTLNIDLFPALVVEDLVPGSRLGPTLMCLLSTQFKRLRDGDRLWYENPGVFSPAQLTQIKQTSLARILCDNADNITRVQSDVFRVAEFPHGYGSCDEIPRVDLRVWQDCCEDCRTRGQFNAFSYHFRGRRSLEFSYQEDKPTKKTRPRKIPSVGRQGEHLSNSTSAFSTRSDASGTNDFREFVLEMQKTITDLRTQIKKLESRLSTTECVDAGGESHANNTKWKKDACTICECKDGQVTCFVEACPPATCAVPVNIPGACCPVCLQKRAEEKP
For the molecule B7, the binding result in assay [2] is reported as “binds”.

B8: glycan-modifying enzyme B3GALT6 (protein, UniProt Q96L58 1-329)
chain: MKLLRRAWRRRAALGLGTLALCGAALLYLARCAAEPGDPRAMSGRSPPPPAPARAAAFLAVLVASAPRAAERRSVIRSTWLARRGAPGDVWARFAVGTAGLGAEERRALEREQARHGDLLLLPALRDAYENLTAKVLAMLAWLDEHVAFEFVLKADDDSFARLDALLAELRAREPARRRRLYWGFFSGRGRVKPGGRWREAAWQLCDYYLPYALGGGYVLSADLVHYLRLSRDYLRAWHSEDVSLGAWLAPVDVQREHDPRFDTEYRSRGCSNQYLVTHKQSLEDMLEKHATLAREGRLCKREVQLRLSYVYDWSAPPSQCCQRREGIP
B8: the binding entry in assay [2] was “binds”.
